Measurements taken from PubChem BioAssay AID540256 (National Center for Advancing Translational Sciences (NCATS), 2011).
Screen size: about 300,000 compounds; about 3,700 (1.2%) were called active. The inconclusive results got no clear call from the source; some entries with a clear call stand among them for comparison. Calls follow the shape of the full dose curve; tested in HEK293 cells. A potency beside an inconclusive call is a rough fit, not a confirmed value.
% is scaled to controls: 0 for no effect and ±100 for the full control effect; potency is read from the fitted curve at half-maximal effect.

Experiment: qHTS for Inhibitors of binding or entry into cells for Lassa Virus; also: nearly all actives have a fitted effect of over 50% in size
Conditions: Lassa virus pseudotype entry inhibition, cell reporter; activity change, negative = inhibition: at 37.9 µM (top of the series) unless noted
For `COc1ccc(CC(=O)Nc2ccc(C#N)c(Cl)c2)cc1S(=O)(=O)N1CCOCC1`, the Potency was inconclusive: 35.5 µM [inhibitor, single point].
In the case of `Cc1ccc(NC(=O)c2ccc(NCCCN3CCOCC3)c([N+](=O)[O-])c2)cc1Cl`, the Potency is reported as inconclusive: 29.1 µM [inhibitor, single point].
For `COc1ccc(-c2nc(NC(=O)c3cc(C(C)(C)C)nn3C)sc2C)cc1`, the Potency was inconclusive: 23.1 µM [inhibitor, single point].
In the case of `Cc1nc2nc(CNC(=O)c3cccc(F)c3)nn2c(C)c1CCC(=O)Nc1cccc(Cl)c1`, the Potency is reported as inconclusive: 6.31 µM [activator, single point].
For `CC(C)(C)c1ccc(C(=O)Nc2c(C(=O)c3ccc(F)cc3)oc3ccccc23)cc1`, the “activity change, negative = inhibition” value was inactive: 8.41% [at 46.1 µM].
In the case of `CCOC(=O)c1ccccc1OC(=O)Oc1ccccc1C(=O)OCC`, the Potency is reported as inconclusive: 22.4 µM [inhibitor, single point].
In the case of `CCSc1nc2ccccc2c(OCc2ccccc2Cl)c1C(=O)OC`, the “activity change, negative = inhibition” value is reported as inactive: 12.9% [at 46.1 µM].
In the case of `Cc1oc(-c2ccccc2Cl)nc1CSCC(=O)NC1CCCC1`, the “activity change, negative = inhibition” value is reported as inactive: -13.4%.
In the case of `O=C1NC(=O)N(Cc2ccco2)C(=O)/C1=C/c1cccn1CCOc1ccccc1Cl`, the “activity change, negative = inhibition” value is reported as inactive: -7.47%.
For `CN1Cc2c(N3CCOCC3)nc3sc(C(=O)c4ccccc4)c(N)c3c2CC1(C)C`, the Potency was inconclusive: 35.5 µM [inhibitor, single point].
For `CCOP(=O)(c1ccccc1)C(O)c1ccc([N+](=O)[O-])cc1` (configuration not stated), the Potency was inconclusive: 25.1 µM [inhibitor, single point].
For `COC(=O)CSc1nnc(Cc2ccccc2)n1-c1ccc(C)cc1`, the Potency was inconclusive: 1 µM [activator, partial curve, poor fit].
In the case of `COc1ccc(Oc2nc3c(c(=O)n(Cc4ccc(Br)cc4)c(=O)n3C)n2C)cc1`, the Potency is reported as inconclusive: 6.31 µM [activator, partial curve, poor fit].
For `CCOC(=O)CCN(C(=O)Nc1ccccc1)C1CCCCC1`, the Potency was inconclusive: 3.98 µM [activator, single point].
With `O=C1OC(Nc2ccc(F)c([N+](=O)[O-])c2)c2ccccc21` (configuration not stated) the Potency was inconclusive: 1.12 µM [inhibitor, single point].
In the case of `O=C(CCS(=O)(=O)c1ccccc1)N(CCCN1CCOCC1)c1nc2c(F)cccc2s1`, the Potency is reported as inconclusive: 12.6 µM [inhibitor, partial curve, poor fit].
In the case of `O=c1[nH]c(O)c(/C=C2/C=CC(c3cc(Cl)ccc3Cl)=N2)c(=O)[nH]1`, the Potency is reported as active: 13 µM.
In the case of `CCC(=O)c1ccc(OC(=O)Cc2ccc(OC)cc2)cc1`, the Potency is reported as inconclusive: 35.5 µM [activator, single point].
In the case of `CS(=O)(=O)c1ccc(Cl)c(NC(=O)CN2CCN(C(=O)c3cccs3)CC2)c1`, the “activity change, negative = inhibition” value is reported as inactive: -5.93% [at 46.1 µM].
In the case of `COCCNC(=O)c1ccc(N2CC3CC(C2)c2cccc(=O)n2C3)c(NC(=O)c2ccc(Br)o2)c1` (configuration not stated), the Potency is reported as inconclusive: 1.12 µM [activator, partial curve, poor fit].
In the case of `COc1ccc(NC(=O)c2ccc3ncsc3c2)cc1`, the “activity change, negative = inhibition” value is reported as inactive: 29.2% [at 46.1 µM].
In the case of `O=C(COC(=O)C1(c2ccc(F)cc2)CCCC1)Nc1ncc(C(F)(F)F)cc1Cl`, the Potency is reported as inconclusive: 4.47 µM [inhibitor, partial curve, poor fit].
With `Cc1ccc(S(=O)(=O)Nc2ccc3nc(-c4cccc(Cl)c4)oc3c2)cc1` the Potency was inconclusive: 35.5 µM [activator, single point].
In the case of `CCC(c1nnnn1Cc1ccc(OC)cc1)N(CCCO)Cc1cc2cc3c(cc2[nH]c1=O)OCO3` (configuration not stated), the Potency is reported as inconclusive: 20.6 µM [inhibitor, partial curve, poor fit].
With `O=C(CCCCCn1c(=O)c2sccc2n(Cc2ccccc2Cl)c1=O)NCc1ccc2c(c1)OCO2` the “activity change, negative = inhibition” value was inactive: -3.57% [at 46.1 µM].
With `COc1ccccc1CNC(=O)c1sccc1C` the “activity change, negative = inhibition” value was inactive: 11.4%.
In the case of `COc1ccccc1NC(=O)NC1(C(=O)NCC2CCCO2)CCCCC1` (configuration not stated), the “activity change, negative = inhibition” value is reported as inactive: -9.13% [at 46.1 µM].
In the case of `CCCn1c(SCC(=O)Nc2nc(-c3ccc(OC)cc3)cs2)nc2c1c(=O)n(C)c(=O)n2C`, the “activity change, negative = inhibition” value is reported as inactive: 4.24%.
For `Cc1cc(C(=O)N2CCN(S(=O)(=O)c3ccccc3C#N)CC2)c(C)o1`, the Potency was inconclusive: 6.31 µM [inhibitor, single point].
With `Cc1cccc(C)c1NC(=O)CSc1nnc(-c2ccco2)c(-c2ccco2)n1` the Potency was inconclusive: 25.1 µM [inhibitor, single point].
In the case of `O=C(CCN1CCOCC1)N/N=C/c1cc(Br)cc(Br)c1O`, the Potency is reported as inconclusive: 10 µM [inhibitor, partial curve, poor fit].
For `COc1ccc(NC(=O)CSc2nc3ccccc3c(=O)n2CCC(=O)NC2CCCCC2)c(OC)c1`, the “activity change, negative = inhibition” value was inactive: 9.29% [at 46.1 µM].
For `COC(=O)CN1C(=S)N(c2ccc(OC)cc2)C(=O)/C1=C/c1cccs1`, the Potency was inconclusive: 39.8 µM [inhibitor, single point].
In the case of `CCOc1ccc(-c2nonc2NC(=O)c2oc3ccc(CC)cc3c2C)cc1`, the Potency is reported as inconclusive: 7.94 µM [inhibitor, partial curve, poor fit].
For `CN(C(=O)c1cnc(N2CCN(c3ncccn3)CC2)c2ccccc12)c1ccc(Cl)cc1`, the Potency was inconclusive: 17.8 µM [inhibitor, partial curve, poor fit].
For `COC(=O)C(C)N1C(=O)S/C(=C\c2cc(C)n(-c3ccccn3)c2C)C1=O` (configuration not stated), the Potency was inconclusive: 29.1 µM [inhibitor, single point].
With `Cc1cc2c(cc1C)N(Cc1ccc(Cl)cc1)C1=NCCCN12` the Potency was inconclusive: 22.4 µM [inhibitor, single point].
For `CCC(Sc1nc2sc(C(=O)OC)c(C)c2c(=O)n1N)C(=O)N(CC)CC` (configuration not stated), the Potency was inconclusive: 14.6 µM [inhibitor, single point].
For `COc1ccc(C(=O)NCCc2cc3c(OC)ccc(OC)c3[nH]c2=O)cc1OC`, the Potency was inconclusive: 10 µM [inhibitor, partial curve, poor fit].
In the case of `Cc1ccc2oc(-c3ccc(Cl)c(NC(=O)c4cc5ccccc5o4)c3)nc2c1`, the Potency is reported as inconclusive: 28.2 µM [activator, partial curve, poor fit].
For `N#Cc1cc(-c2ccccc2)nnc1Oc1ccccc1Cl`, the Potency was inconclusive: 11.2 µM [inhibitor, single point].
In the case of `CC(C)(C)OC(=O)N1CCC(c2c(C(=O)N3CCN(Cc4ccccc4)CC3)cnn2-c2cccc(Cl)c2)CC1`, the Potency is reported as inconclusive: 11.2 µM [inhibitor, partial curve, poor fit].
For `CSc1ccc(C2NN=C(c3ccccc3)S2)cc1` (configuration not stated), the Potency was active: 6.31 µM.
In the case of `CCOCCCNC(=O)c1ccc2c(c1)ncn2-c1ccccc1OC`, the Potency is reported as inconclusive: 35.5 µM [inhibitor, single point].
For `COc1ccc(Cl)cc1N1CCN(CCNC(=O)Nc2ccccc2C)CC1`, the Potency was inconclusive: 22.4 µM [inhibitor, single point].
In the case of `Cc1ccc(NC(=O)Nc2ccccc2C(=O)NCc2ccccc2)cc1`, the “activity change, negative = inhibition” value is reported as inactive: 6.74%.
With `C=CCN1C[C@H](COC(=O)c2ccc(C)c(C)c2)Oc2cccc(F)c2S1(=O)=O` the Potency was inconclusive: 4.99 µM [inhibitor, partial curve, poor fit].
For `COC(=O)c1cc(C(=O)c2ccc(Cl)cc2Cl)cn1C`, the “activity change, negative = inhibition” value was inactive: -7.12%.
In the case of `CC(C)CN(CCNC(=O)CCN1N=C(c2ccccc2)CCC1=O)CC(C)C`, the Potency is reported as inconclusive: 14.1 µM [inhibitor, single point].
With `CC(C)(C)NCc1cc(Cl)ccc1OCc1cccs1` the “activity change, negative = inhibition” value was inactive: -23.2%.
With `Cc1onc(-c2ccc(Cl)cc2)c1-c1ccnn1S(=O)(=O)c1ccc(Cl)cc1` the Potency was inconclusive: 12.6 µM [inhibitor, partial curve, poor fit].
For `CCc1ccc(-c2cn3nc(CC)sc3n2)cc1`, the Potency was inconclusive: 1.58 µM [activator, partial curve, poor fit].
For `COc1ccc(CNC(=O)C2CCN(S(=O)(=O)c3cc(OC)ccc3OC)CC2)cc1`, the “activity change, negative = inhibition” value was inactive: -19.2%.
In the case of `Cc1ccc(S(=O)(=O)N(Cc2c(F)cccc2Cl)C(=O)N2CCN(C)CC2)cc1`, the Potency is reported as inconclusive: 0.1 µM [activator, full curve, poor fit].
With `COc1ccc(CNC(=O)C(OC(=O)c2ccco2)c2ccccc2F)cc1` (configuration not stated) the “activity change, negative = inhibition” value was inactive: 11% [at 46.1 µM].
In the case of `O=S(=O)(/N=C(/NS(=O)(=O)c1ccccc1)c1ccccc1)c1ccccc1`, the “activity change, negative = inhibition” value is reported as inactive: -10.3%.
With `Nc1nsc2ccccc12` the Potency was inconclusive: 20.6 µM [inhibitor, partial curve].
With `Cc1cccc(NC(=O)c2nc(-c3ccccc3)n(-c3ccccc3)n2)c1C` the Potency was inconclusive: 31.6 µM [inhibitor, single point].
For `COc1ccc(NS(=O)(=O)c2ccc(NC(=O)c3ccccc3Br)cc2)nn1`, the Potency was inconclusive: 35.5 µM [inhibitor, single point].
With `CC(OC(=O)c1cc(Br)ccc1O)C(=O)NCc1ccc2c(c1)OCO2` (configuration not stated) the Potency was inconclusive: 25.1 µM [inhibitor, single point].
In the case of `COc1ccc(C(c2oc(CO)cc(=O)c2O)c2oc(CO)cc(=O)c2O)cc1`, the “activity change, negative = inhibition” value is reported as inactive: 8.76% [at 46.1 µM].
In the case of `CCC(CC)C(=O)Nc1cccc(C(=O)NCc2ccco2)c1`, the “activity change, negative = inhibition” value is reported as inactive: 9.25%.
In the case of `Cn1cc(C=C2C(=O)Nc3cccnc32)c2ccccc21`, the Potency is reported as inconclusive: 4.99 µM [activator, full curve, poor fit].
For `Oc1ccccc1-c1cc(-c2ccccc2Cl)[nH]n1`, the Potency was active: 10 µM.
In the case of `CC1=NOC(=O)/C1=C/c1ccc(O)c(Br)c1`, the “activity change, negative = inhibition” value is reported as inactive: 2.52% [at 46.1 µM].
With `COc1ccc(CCNC(=O)CCN2C(=O)[C@@H]3Cc4ccccc4CN3C2=O)cc1` the Potency was inconclusive: 11.2 µM [inhibitor, partial curve, poor fit].
In the case of `COC(=O)CC1Oc2ccccc2-n2cc(-c3ccc(F)cc3)nc21` (configuration not stated), the Potency is reported as inconclusive: 5.62 µM [inhibitor, partial curve, poor fit].
